Measurements published in paper PMC12520464.
Results are given in words; binding and its absence hold for the method and conditions named. Binding seen in cells or lysates may run through a third protein. A result given as binding can be weak or reduced; the word gives no strength. Tags and fused reporters may be left off the sequences shown.

Protein sequences, listed by entry. Tags and fused reporters are not part of them. Lines headed by an entry give the natural chain unless they say otherwise; changes in a name come on top.
UniProt P08195: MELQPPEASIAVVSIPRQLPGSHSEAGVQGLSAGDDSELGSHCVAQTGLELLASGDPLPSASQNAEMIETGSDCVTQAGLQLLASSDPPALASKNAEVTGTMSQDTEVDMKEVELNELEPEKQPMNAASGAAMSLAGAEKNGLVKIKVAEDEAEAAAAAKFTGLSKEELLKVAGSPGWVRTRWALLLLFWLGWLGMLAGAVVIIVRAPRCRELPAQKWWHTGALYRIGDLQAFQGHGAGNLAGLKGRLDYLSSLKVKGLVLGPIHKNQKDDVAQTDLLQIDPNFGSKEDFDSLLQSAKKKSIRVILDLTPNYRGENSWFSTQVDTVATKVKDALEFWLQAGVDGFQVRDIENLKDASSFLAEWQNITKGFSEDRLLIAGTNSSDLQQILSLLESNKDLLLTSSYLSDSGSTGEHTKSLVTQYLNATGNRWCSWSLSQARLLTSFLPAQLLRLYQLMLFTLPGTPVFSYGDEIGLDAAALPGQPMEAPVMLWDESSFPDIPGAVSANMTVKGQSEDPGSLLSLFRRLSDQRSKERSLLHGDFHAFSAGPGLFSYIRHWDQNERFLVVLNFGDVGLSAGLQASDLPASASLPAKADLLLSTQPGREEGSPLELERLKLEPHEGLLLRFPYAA

What was measured:
[1] = biological target: T1, Flag-tagged ARG1^1-240aa (human) (UniProt P05089); test: co-IP; HEK 293T cells co-transfected with Flag-tagged ARG1 and HA-tagged SLC3A2 constructs (whole or truncated)
T1 sequence: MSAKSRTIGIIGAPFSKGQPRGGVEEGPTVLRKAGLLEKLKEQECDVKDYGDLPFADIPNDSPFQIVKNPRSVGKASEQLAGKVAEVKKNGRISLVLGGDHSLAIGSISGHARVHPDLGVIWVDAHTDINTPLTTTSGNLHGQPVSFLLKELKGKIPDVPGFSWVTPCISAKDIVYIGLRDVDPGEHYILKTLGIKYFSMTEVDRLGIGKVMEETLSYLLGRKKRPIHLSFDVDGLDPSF

[2] = biological target: T2, Flag-tagged ARG1^WT (pCDH-Flag) (human) (UniProt P05089); test: as above
T2 sequence: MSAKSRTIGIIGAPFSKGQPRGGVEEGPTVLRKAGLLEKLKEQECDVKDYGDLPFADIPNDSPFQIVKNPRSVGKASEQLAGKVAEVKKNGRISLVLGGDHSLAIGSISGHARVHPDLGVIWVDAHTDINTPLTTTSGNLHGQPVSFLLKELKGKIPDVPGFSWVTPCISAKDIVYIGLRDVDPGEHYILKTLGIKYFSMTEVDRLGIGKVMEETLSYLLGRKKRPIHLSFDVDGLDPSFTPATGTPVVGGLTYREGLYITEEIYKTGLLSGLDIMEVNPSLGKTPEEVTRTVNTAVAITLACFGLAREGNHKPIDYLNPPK

[3] = biological target: GST-SLC3A2^1-184aa (human) (UniProt P08195); test: pull-down; 20 µg purified GST or GST-SLC3A2 protein and lysate of HCT116 cells transfected with ARG1 plasmid, 100 µL GST beads, 2 h at 4 °C; blots with anti-GST and anti-ARG1; only the target purified

HA-tagged SLC3A2^WT (pCDH-HA) (from UniProt P08195-1)
binding [1]: binds

HA-tagged SLC3A2^1-184aa (from UniProt P08195-1) (domain or fragment)
binding [2]: binds

B1: Flag-ARG1 (full-length human arginase-1, pcDNA3.1-Flag) (protein, UniProt P05089 1-322)
chain: T2 sequence
binding [3]: binds
